Source: paper PMC4751342
These are yes or no findings as the source states them, for the method shown.

Molecular target: mouse Juno, complete ectodomain (residues G20-A221), soluble protein (mouse) (UniProt Q9EQF4)
Assay: SEC; affinity-purified Juno after enzymatic trimming of N-glycans; both purified

B1: mouse Juno, complete ectodomain (residues G20-A221), soluble protein (domain or fragment, UniProt Q9EQF4 20-221)
chain: GDKLLSVCMNSKRHKQEPGPEDELYQECRPWEDNACCTRSTSWEAHLEEPLLFNFSMMHCGLLTPACRKHFIQAICFHECSPNLGPWIQPVVPNGQEEQRVWGVPLCQEDCEDWWRACHSSLTCKSNWLHGWDWSEEKKHCPAHEPCLPFSYHFPTPDDLCEKIWNNTFKASPERRNSGRCLQKWFEPTLSNPNVEVALHFA
modifications: N-glycans enzymatically trimmed; GlcNAc attached to N185
In the case of B1, the binding is reported as “no binding”.
